Laboratory results taken from PMC6763495.
These are yes or no findings as the source states them, for the method shown. In cells and extracts the contact can be indirect. Some binding calls cover weakened binding; strength is not graded here. Sequences can lack the tags named with a protein.

Protein sequences, listed by entry. Tags and fused reporters are not part of them.
UniProt P08151: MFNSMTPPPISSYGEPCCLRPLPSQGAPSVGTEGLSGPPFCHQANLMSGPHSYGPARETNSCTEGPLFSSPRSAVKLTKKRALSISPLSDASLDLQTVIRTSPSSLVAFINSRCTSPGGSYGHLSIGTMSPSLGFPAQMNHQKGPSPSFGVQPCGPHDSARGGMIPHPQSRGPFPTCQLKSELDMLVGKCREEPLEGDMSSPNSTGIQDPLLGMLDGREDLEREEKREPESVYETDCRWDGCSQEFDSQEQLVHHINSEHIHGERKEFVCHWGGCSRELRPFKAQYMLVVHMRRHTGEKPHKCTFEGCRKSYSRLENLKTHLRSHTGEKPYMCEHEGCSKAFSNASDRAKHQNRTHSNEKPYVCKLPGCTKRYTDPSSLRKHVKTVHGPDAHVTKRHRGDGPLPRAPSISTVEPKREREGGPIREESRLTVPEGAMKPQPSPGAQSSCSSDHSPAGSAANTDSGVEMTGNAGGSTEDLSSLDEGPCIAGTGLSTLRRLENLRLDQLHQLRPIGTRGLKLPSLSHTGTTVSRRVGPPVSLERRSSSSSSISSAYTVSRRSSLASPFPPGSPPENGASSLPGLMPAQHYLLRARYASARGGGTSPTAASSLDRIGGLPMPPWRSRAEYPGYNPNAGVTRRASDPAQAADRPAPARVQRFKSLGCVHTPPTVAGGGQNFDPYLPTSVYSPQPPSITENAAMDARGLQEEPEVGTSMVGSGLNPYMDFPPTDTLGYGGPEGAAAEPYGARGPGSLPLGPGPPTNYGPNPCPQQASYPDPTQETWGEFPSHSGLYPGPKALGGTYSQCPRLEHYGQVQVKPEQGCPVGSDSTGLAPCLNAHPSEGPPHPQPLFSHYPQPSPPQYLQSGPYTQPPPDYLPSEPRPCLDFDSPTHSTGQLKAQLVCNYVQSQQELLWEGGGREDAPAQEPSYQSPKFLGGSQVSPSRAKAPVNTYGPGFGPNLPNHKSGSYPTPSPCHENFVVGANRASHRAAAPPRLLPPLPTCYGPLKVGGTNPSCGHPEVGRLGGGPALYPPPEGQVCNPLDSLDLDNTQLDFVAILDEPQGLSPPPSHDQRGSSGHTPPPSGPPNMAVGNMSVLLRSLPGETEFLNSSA
UniProt Q13547: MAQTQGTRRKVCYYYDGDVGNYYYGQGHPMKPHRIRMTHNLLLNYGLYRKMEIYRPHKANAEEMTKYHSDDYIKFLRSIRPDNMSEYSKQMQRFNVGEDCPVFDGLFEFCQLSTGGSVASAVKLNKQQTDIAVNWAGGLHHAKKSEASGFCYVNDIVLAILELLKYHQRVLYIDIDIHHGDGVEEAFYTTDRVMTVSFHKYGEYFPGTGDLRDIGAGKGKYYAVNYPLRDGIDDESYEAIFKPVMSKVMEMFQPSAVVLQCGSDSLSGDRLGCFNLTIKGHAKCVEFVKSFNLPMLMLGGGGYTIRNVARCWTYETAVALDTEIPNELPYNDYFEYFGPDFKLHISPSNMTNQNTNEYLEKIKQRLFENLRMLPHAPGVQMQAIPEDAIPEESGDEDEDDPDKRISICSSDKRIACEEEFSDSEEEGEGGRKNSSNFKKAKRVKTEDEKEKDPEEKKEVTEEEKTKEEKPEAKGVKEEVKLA

Legend:
ZNF521-DDK-Flag (human) [1] = molecular target: T1, ZNF521-DDK-Flag (human) (UniProt Q96K83); assay: co-IP; HEK293T co-transfected, lysed 48 h later in IP buffer (50 mM Tris/HCl pH 7.5, 250 mM NaCl, 0.1% Triton X-100, ZnCl2); IP of the Flag/DDK-tagged protein with anti-Flag-M2 and Protein G Sepharose overnight at 4 °C; Western blot; in Fig. 5a increasing amounts of the co-transfected partner
T1 sequence: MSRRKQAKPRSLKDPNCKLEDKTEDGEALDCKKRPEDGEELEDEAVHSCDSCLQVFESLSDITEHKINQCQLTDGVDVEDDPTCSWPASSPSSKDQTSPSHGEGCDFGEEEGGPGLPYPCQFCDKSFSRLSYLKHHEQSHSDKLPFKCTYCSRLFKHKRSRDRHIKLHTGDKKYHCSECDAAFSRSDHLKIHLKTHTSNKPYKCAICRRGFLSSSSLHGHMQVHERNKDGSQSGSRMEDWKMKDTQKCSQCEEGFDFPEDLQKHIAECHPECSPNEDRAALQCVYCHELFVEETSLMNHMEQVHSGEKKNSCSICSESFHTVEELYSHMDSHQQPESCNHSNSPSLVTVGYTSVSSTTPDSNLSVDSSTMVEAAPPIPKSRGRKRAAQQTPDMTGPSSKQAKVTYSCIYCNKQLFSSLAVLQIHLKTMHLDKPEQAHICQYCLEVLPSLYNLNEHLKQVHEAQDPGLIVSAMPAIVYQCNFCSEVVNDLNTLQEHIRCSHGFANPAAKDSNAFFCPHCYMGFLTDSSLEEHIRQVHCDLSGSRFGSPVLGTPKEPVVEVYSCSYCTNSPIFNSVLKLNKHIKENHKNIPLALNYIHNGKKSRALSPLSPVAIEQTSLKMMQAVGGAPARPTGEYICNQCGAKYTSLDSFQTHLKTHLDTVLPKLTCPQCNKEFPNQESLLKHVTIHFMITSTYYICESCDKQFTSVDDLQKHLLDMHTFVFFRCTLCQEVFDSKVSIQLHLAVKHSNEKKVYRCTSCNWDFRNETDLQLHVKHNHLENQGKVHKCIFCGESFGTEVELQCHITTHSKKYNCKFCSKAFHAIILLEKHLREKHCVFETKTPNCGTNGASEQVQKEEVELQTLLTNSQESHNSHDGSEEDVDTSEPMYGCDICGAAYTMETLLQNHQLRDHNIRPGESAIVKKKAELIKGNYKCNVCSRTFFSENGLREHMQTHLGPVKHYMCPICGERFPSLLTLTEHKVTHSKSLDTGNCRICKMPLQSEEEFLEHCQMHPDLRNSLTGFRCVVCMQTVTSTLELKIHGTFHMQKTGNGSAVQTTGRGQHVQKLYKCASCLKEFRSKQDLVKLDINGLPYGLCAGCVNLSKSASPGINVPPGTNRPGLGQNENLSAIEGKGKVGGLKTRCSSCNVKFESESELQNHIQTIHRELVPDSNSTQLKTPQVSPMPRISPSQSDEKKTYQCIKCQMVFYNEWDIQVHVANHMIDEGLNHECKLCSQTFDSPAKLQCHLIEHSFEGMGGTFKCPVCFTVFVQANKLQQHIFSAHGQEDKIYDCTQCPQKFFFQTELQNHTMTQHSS

ZNF521-DDK-Flag (human) [2] = molecular target: T1, ZNF521-DDK-Flag (human); assay: co-IP; ChIP samples: transfected 293T cells cross-linked with 1% formaldehyde, nuclei sonicated, IP with anti-Flag-M2 and Protein G Sepharose; proteins in the IP analysed by Western blot (Fig. 3d)

Substance: 3xHA-GLI1 (from UniProt P08151 1-1106)
- binding (ZNF521-DDK-Flag (human) [1]): binds
- binding (ZNF521-DDK-Flag (human) [2]): binds

Substance: histone deacetylase 1 (HDAC1) (from UniProt Q13547 1-482) (enzyme)
- binding (ZNF521-DDK-Flag (human) [1]): binds
